Reference: PubChem BioAssay AID1053208 (Peter MacCallum Cancer Centre, 2014)
The deposit covers about 17,000 reagents; this is an unselected part. Over the whole deposit, 788 (4.7%) are marked active. 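Calls rest on z-score classes alone; an extra cut-off of viability at most 70% of control was not applied to them.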 Not all columns of the deposit are shown.

Test: 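Genes whose silencing cuts survival of bone tumour cells only with doxorubicin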 (primary screen)
System: mouse osteosarcoma cells, early-passage culture from an engineered mouse model of fibroblastic bone tumour
Reagent: siRNA pool against mouse genes, 40 nM
Time to read-out: about 120 h (48 h before drug, then 72 h with drug)
Conditions: doxorubicin 100 nM for 72 h, roughly 30-40% inhibitory dose
Detection: 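Luminescent ATP signal taken as viability with or without 100 nM doxorubicin for 72 h; mean of two wells set against non-targeting siRNA and turned into robust z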
Scale: viability z-score with doxorubicin: higher = more viable cells under doxorubicin; viability z-score without drug: higher = more viable cells with knock-down alone
Hit rule: 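Called active if knock-down leaves viability unchanged without drug (z within -2 to 2) but lowers it with doxorubicin (z at or under -2)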

Gene,combined z-score class,viability z-score with doxorubicin,viability z-score without drug,Call
Cers2,no change with or without drug,-0.22,1.18,inactive
Tm2d2,no change with or without drug,0.67,0.34,inactive
Oxct2b,no change with or without drug,-1.35,-0.84,inactive
Osbpl9,low cell count with doxorubicin only,-2.7,-1.18,active
Ptges,no change with or without drug,1.69,1.85,inactive
Gpr171,no change with or without drug,0.11,0.17,inactive
Svs4,no change with or without drug,0.67,1.35,inactive
Oplah,no change with or without drug,0.34,1.85,inactive
Cox10,no change with or without drug,0,0.51,inactive
Nrip2,no change with or without drug,1.01,0.51,inactive
Slc35f3,no change with or without drug,0.22,0.34,inactive
Or6c68,no change with or without drug,-1.01,0.17,inactive
Rttn,high cell count with and without drug,2.92,4.05,inactive
Or52s1,low cell count with and without drug,-3.37,-3.2,inactive
Pramel32,no change with or without drug,1.12,1.35,inactive
Fgl1,no change with or without drug,-0.45,-0.17,inactive
Pdx1,no change with or without drug,0.11,0,inactive
Slc12a7,no change with or without drug,0.9,1.18,inactive
Rpl21,low cell count with and without drug,-4.27,-2.87,inactive
Trpm7,no change with or without drug,-0.11,-0.17,inactive
